This is one part of the list. Further columns of the screen follow, without active or inactive calls. Most of these compounds were active or inconclusive in the main read-out, so they are no random draw. The note in brackets gives the kind of curve behind each potency; many fits are weak.
Test: qHTS Assay for Lipid Storage Modulators in Drosophila S3 Cells;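 on cell number change: cells counted by Cell Tracker Red CMTPX staining in the red channel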
Conditions: BODIPY lipid droplet fluorescence, 18-24 h; for cell number change: measured here: cell count max response, cells fed with added oleic acid
In short: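 Drosophila S3 cells got compounds at several concentrations plus oleic acid (400 uM solution). Laser-scanning cytometry with 488 nm excitation read lipid droplets at 500-530 nm and cells at 575-640 nm. Percent activity was relative to 20 uM Triacsin C.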

[1] = measured here: lipid fluorescence (Fed channel) AC50, cells fed with added oleic acid
[2] = measured here: cell number channel AC50, cells fed with added oleic acid

| SMILES | cell number change [%] | AC50 [1] | AC50 [2] |
| --- | --- | --- | --- |
| CCOc1ccc(NC(=O)/C(=C\c2ccc(OC(C)=O)c(OC)c2)NC(C)=O)cc1 | -4.04 | 29.1 µM [rising, single point] |  |
| CC12CC(NC(=O)N1c1cccc(C(=O)N3CCCCC3)c1)c1ccccc1O2 (configuration not stated) | -31.7 |  | 25.9 µM [falling, single point] |
| CCCn1c(SCC(=O)NCc2ccccc2)nnc1-c1ccncc1 | 8.09 |  |  |
| NC(=O)COC(=O)c1oc2ccccc2c1CSc1ccc(Cl)cc1 | -25.7 | 7.31 µM [rising, partial curve] |  |
| CCc1nnc(NC(=O)CSc2nc3c(cc2C#N)CCC3)s1 | -3.24 | 1.46 µM [rising, partial curve] |  |
| O=C(/C(=C/c1ccc(Cl)cc1)c1nc2ccccc2[nH]1)c1cccs1 | -23.5 | 29.1 µM [falling, single point] |  |
| CCOC(=O)C1CCN(C(=O)N(C)C)CC1 |  |  | 6.51 µM [falling, single point] |
| Nc1nc2ccc(S(=O)(=O)N3CCCCC3)cc2s1 | -36.8 | 18.4 µM [falling, partial curve] | 0.00411 µM [falling, full curve, poor fit] |
| CS(=O)(=O)N(CCc1ccccc1)CC(=O)Nc1ccc2c(c1)OCO2 | -0.247 | 0.651 µM [rising, single point] |  |
| NC(=O)COC(=O)c1cc(=O)[nH]c2ccc(S(=O)(=O)Nc3ccc(F)cc3)cc12 | 5.83 |  |  |
| O=C(N/N=C/c1ccccc1F)c1ccccc1OCc1ccccc1 | -30.3 |  | 1.46 µM [falling, full curve, poor fit] |
| Cc1cc(NC(=O)CSCc2ccc([N+](=O)[O-])cc2)no1 | 1.54 | 0.92 µM [rising, full curve, poor fit] |  |
| CCC(c1nnc(SCC(=O)Nc2ccc(NC(C)=O)cc2)n1Cc1ccccc1)N(C)C (configuration not stated) | -13.2 | 0.00461 µM [falling, full curve, poor fit] |  |
| O=C(CSc1nc2ccccc2o1)NCc1ccc2c(c1)OCO2 |  | 1.64 µM [rising, partial curve] |  |
| Cc1ccc(CNS(=O)(=O)c2c(C)[nH]c(C)c2C(=O)N2CCCCC2)cc1 | 54.1 | 0.116 µM [rising, full curve, poor fit] | 29.1 µM [rising, single point] |
| CCCCCC1CC(CC(C)C(=O)Nc2nncs2)C(=O)O1 (configuration not stated) | -23.4 | 29.1 µM [falling, single point] |  |
| C/C(=N\O)C1/C(=N/O)CC2C1C2(C)C (configuration not stated) | -49.5 |  | 20.6 µM [falling, partial curve, poor fit] |
| CC(C(=O)OCC(=O)Nc1cccc(S(=O)(=O)N2CCOCC2)c1)N1C(=O)c2ccccc2C1=O (configuration not stated) | -24.1 | 29.1 µM [falling, single point] |  |
| CCCNC(=O)c1cn(CC)c2cc(N3CCN(C(=O)c4ccco4)CC3)c(F)cc2c1=O |  | 8.2 µM [falling, partial curve] |  |
| O=c1[nH]c2ccccc2n1CCC1CCCCC1 | -93.9 |  | 32.6 µM [falling, partial curve] |

18 compounds out of the list, arranged by molar mass, largest number first:

| SMILES | cell number change [%] | AC50 [1] | AC50 [2] |
| --- | --- | --- | --- |
| CC(C(=O)OCC(=O)Nc1cccc(S(=O)(=O)N2CCOCC2)c1)N1C(=O)c2ccccc2C1=O (configuration not stated) | -24.1 | 29.1 µM [falling, single point] |  |
| CCC(c1nnc(SCC(=O)Nc2ccc(NC(C)=O)cc2)n1Cc1ccccc1)N(C)C (configuration not stated) | -13.2 | 0.00461 µM [falling, full curve, poor fit] |  |
| CCCNC(=O)c1cn(CC)c2cc(N3CCN(C(=O)c4ccco4)CC3)c(F)cc2c1=O |  | 8.2 µM [falling, partial curve] |  |
| NC(=O)COC(=O)c1cc(=O)[nH]c2ccc(S(=O)(=O)Nc3ccc(F)cc3)cc12 | 5.83 |  |  |
| CCOc1ccc(NC(=O)/C(=C\c2ccc(OC(C)=O)c(OC)c2)NC(C)=O)cc1 | -4.04 | 29.1 µM [rising, single point] |  |
| CC12CC(NC(=O)N1c1cccc(C(=O)N3CCCCC3)c1)c1ccccc1O2 (configuration not stated) | -31.7 |  | 25.9 µM [falling, single point] |
| Cc1ccc(CNS(=O)(=O)c2c(C)[nH]c(C)c2C(=O)N2CCCCC2)cc1 | 54.1 | 0.116 µM [rising, full curve, poor fit] | 29.1 µM [rising, single point] |
| NC(=O)COC(=O)c1oc2ccccc2c1CSc1ccc(Cl)cc1 | -25.7 | 7.31 µM [rising, partial curve] |  |
| CCCn1c(SCC(=O)NCc2ccccc2)nnc1-c1ccncc1 | 8.09 |  |  |
| O=C(/C(=C/c1ccc(Cl)cc1)c1nc2ccccc2[nH]1)c1cccs1 | -23.5 | 29.1 µM [falling, single point] |  |
| O=C(N/N=C/c1ccccc1F)c1ccccc1OCc1ccccc1 | -30.3 |  | 1.46 µM [falling, full curve, poor fit] |
| O=C(CSc1nc2ccccc2o1)NCc1ccc2c(c1)OCO2 |  | 1.64 µM [rising, partial curve] |  |
| CCCCCC1CC(CC(C)C(=O)Nc2nncs2)C(=O)O1 (configuration not stated) | -23.4 | 29.1 µM [falling, single point] |  |
| Cc1cc(NC(=O)CSCc2ccc([N+](=O)[O-])cc2)no1 | 1.54 | 0.92 µM [rising, full curve, poor fit] |  |
| Nc1nc2ccc(S(=O)(=O)N3CCCCC3)cc2s1 | -36.8 | 18.4 µM [falling, partial curve] | 0.00411 µM [falling, full curve, poor fit] |
| O=c1[nH]c2ccccc2n1CCC1CCCCC1 | -93.9 |  | 32.6 µM [falling, partial curve] |
| CCOC(=O)C1CCN(C(=O)N(C)C)CC1 |  |  | 6.51 µM [falling, single point] |
| C/C(=N\O)C1/C(=N/O)CC2C1C2(C)C (configuration not stated) | -49.5 |  | 20.6 µM [falling, partial curve, poor fit] |

(continued)

| SMILES | cell number change [%] | AC50 [1] | AC50 [2] |
| --- | --- | --- | --- |
| CCCOc1cccc(C(=O)Nc2cc(NC(=O)c3ccco3)ccc2OC)c1 |  |  | 0.00411 µM [rising, full curve, poor fit] |
| OC(COc1ccccc1)CN1C2=NCCCN2c2ccccc21 (configuration not stated) | 20.6 | 29.1 µM [rising, single point] |  |
| CSCCC(NC(=O)COc1ccccc1)C(=O)N1CCN(c2ccccc2Cl)CC1 (configuration not stated) | 40.8 | 2.91 µM [rising, partial curve] | 0.00651 µM [rising, full curve, poor fit] |
| CCOc1ccc(C(=O)OC(C)CN2CCCCC2)cc1 (configuration not stated) | 21.1 |  | 5.17 µM [rising, partial curve, poor fit] |
| CC(C)(C)n1cc(S(=O)(=O)c2ccccc2)[nH]c1=O | 21 | 0.0231 µM [falling, full curve, poor fit] |  |
| Cc1cc(C)nc(N/N=C/c2ccco2)n1 | 24.4 | 29.1 µM [falling, single point] |  |
| O=C(Oc1ccc(/C=N/NC(=O)c2ccccc2O)cc1)c1ccccc1 | 22.7 |  | 6.51 µM [falling, single point] |
| COc1cccc(NC(=O)c2ccc(S(=O)(=O)NCc3cccnc3)cc2)c1 | -15.4 | 1.16 µM [rising, full curve] |  |
| CCCn1c(CN2CCN(C(=O)OCC)CC2)nc2cc(NC(=O)CC)ccc21 | -9.01 | 4.61 µM [falling, partial curve, poor fit] |  |
| CCOC(=O)c1ccc2c(c1)NCc1cccc(OC)c1O2 | -1.83 | 0.116 µM [falling, full curve, poor fit] |  |
| C/C(CC(=O)Nc1cc(C)ccn1)=N\NC(=O)C(=O)Nc1cccc(C)c1 | -4.75 | 6.51 µM [rising, single point] |  |
| O=C1NC2=C(C(=O)CCC2)C(c2ccc3ncccc3c2)N1 (configuration not stated) | -13.4 | 8.2 µM [falling, partial curve] | 0.231 µM [falling, full curve, poor fit] |
| O=C(Nc1nncs1)Oc1ccccc1 | -62.2 | 29.1 µM [falling, single point] |  |
| CCOn1c(=O)c(-c2cccs2)[n+]([O-])c2ccccc21 | 82.5 | 18.4 µM [rising, partial curve] | 6.51 µM [rising, partial curve] |
| O=C(O)CCCNc1cc(N2CCN(C(=O)c3ccco3)CC2)c2noc3c2c1C(=O)c1ccccc1-3 | -5.56 | 18.4 µM [falling, single point] |  |
| O=C(NCc1ccc2c(c1)OCO2)Oc1ccccc1 | -12 |  | 0.00517 µM [falling, full curve, poor fit] |
| O=C(Nc1ccccc1)C1=C(c2ccccc2)S(=O)(=O)CCS1(=O)=O | -47.5 | 25.9 µM [falling, partial curve, poor fit] | 0.461 µM [falling, partial curve, poor fit] |
| Cc1ccc(C(=O)Nc2cc(Cl)ccc2N2CCCCC2)s1 |  | 29.1 µM [rising, single point] | 4.11 µM [rising, partial curve] |
| Clc1ccccc1Cn1c(/C=C/c2ccco2)nc2ccccc21 | 66.7 |  | 2.91 µM [rising, full curve] |
| CCCCc1cc(=O)oc2cc(OCC(=O)N3CCOCC3)ccc12 | -7.89 |  |  |

| SMILES | cell number change [%] | AC50 [1] | AC50 [2] |
| --- | --- | --- | --- |
| Cc1nn2c(N)c(C#N)cnc2c1-c1ccccc1 | -34.4 | 32.6 µM [falling, single point] | 29.1 µM [falling, single point] |
| COc1ccc(-n2c(Cc3cc(=O)[nH]c(=O)[nH]3)nnc2SCC(=O)N2CCCC2)cc1 | -0.759 | 4.11 µM [falling, full curve] |  |
| Cc1cc(C2N=C(N)Nc3nc4ccccc4n32)c(C)n1-c1ccccc1Cl (configuration not stated) | -92.8 | 18.4 µM [falling, partial curve] | 29.1 µM [falling, single point] |
| C=CCc1cccc(/C=N/NC(=O)CNc2cccc3ccccc23)c1O | -62.4 |  | 20.6 µM [falling, single point] |
| CCn1c(CN2CCOCC2)nnc1SCC(=O)Nc1ccccc1Cl | 15.2 | 0.326 µM [rising, partial curve, poor fit] |  |
| O=C1CCCN1c1ccc(S(=O)(=O)N2CCC(c3ccccc3)CC2)cc1 | 50 | 8.2 µM [rising, partial curve] | 0.731 µM [rising, full curve, poor fit] |
| CCOC(=O)c1sc(NC(=O)c2cc(-c3ccccc3C)nc3ccccc23)c(C#N)c1C | 71 | 0.58 µM [rising, partial curve] | 0.731 µM [rising, partial curve, poor fit] |
| COc1ccc(-c2cc(C(F)(F)F)nc(SCCC(=O)N3CCOCC3)n2)cc1 | -41.8 |  | 6.51 µM [falling, full curve] |
| CC(C)(C)OC(=O)N1CCC[C@H]1c1nnc(SCc2ccc(Cl)cc2Cl)o1 | 80.7 | 29.1 µM [rising, single point] | 29.1 µM [rising, single point] |
| COc1ccc(C(=O)CN2C(=O)NC3(CCc4ccccc43)C2=O)c(OC)c1 (configuration not stated) | 3.33 |  | 0.231 µM [rising, full curve, poor fit] |
| CCN(CC)S(=O)(=O)c1ccc(Cl)c(C(=O)NC)c1 | 3.92 |  |  |
| Cn1nc(C(=O)NCc2cccs2)c2ccccc2c1=O | 13.3 | 5.8 µM [rising, partial curve] |  |
| O=C(Nc1ccc([N+](=O)[O-])cc1)Nc1ccc(OC(F)F)c(Cl)c1 | -79 | 6.51 µM [falling, full curve] | 6.51 µM [falling, full curve] |
| Cc1c(NC(=O)C(C)Sc2ccc3ccccc3n2)c(=O)n(-c2ccccc2)n1C (configuration not stated) | 12.1 |  |  |
| COc1ccc(CNC(=O)NCc2ccc(OC)c(OC)c2)cc1OC | -6.9 |  |  |
| CC(=O)NC(CC(=O)OCC(=O)c1c(N)n(C)c(=O)n(C)c1=O)c1ccccc1 (configuration not stated) | -13.3 |  |  |
| O=C1c2cccc3cccc(c23)C(=O)N1c1ccc(O)cc1 | -14.3 | 2.91 µM [falling, full curve] |  |
| O=C(Nc1ccc(F)cc1)Nc1sccc1-c1nc2ccccc2s1 | -19.1 | 29.1 µM [falling, single point] |  |

From PubChem BioAssay AID2685 (National Center for Advancing Translational Sciences (NCATS), 2010)
